PubChem BioAssay AID1259254, NCATS, 2017
This is a random part of about 59,000 deposited reagents. About 1,550 of them (2.6%) were called active. 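G2 share is only a proxy for re-replication; each gene was hit by three separate siRNAs, and active genes were retested.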 Raw values vary from plate to plate and are shown uncorrected. Not given: the amount of reagent.

Purpose: 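Gene knock-downs that lead to re-replication, shown by excess G2 DNA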 (primary screen)
Cell system: human HCT116 colorectal cancer cells
Reagent: single siRNA against human genes
Time to read-out: 3 days
Read-out: 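Nuclei stained with Hoechst and imaged; cell-cycle phase assigned by DNA content; G2 share scaled per plate, non-targeting siRNA 0%, GMNN siRNA 100%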
Scale: G2 robust z-score and G2 cells, % of GMNN control: higher = more G2 cells, more excess DNA replication; raw share of cells in G2: higher = larger share of cells with G2 DNA content
Call rule: 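An siRNA counts as active if its G2 robust z-score lies at least 5 MADs above the screen median; here such calls match roughly 38% of GMNN control or more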

| gene knocked down | PubChem SID | G2 robust z-score | G2 cells, % of GMNN control | raw share of cells in G2 (%) | Outcome |
| --- | --- | --- | --- | --- | --- |
| CCL7 | SID160716450 | 2.64 | 21.6 | 12.9 | inactive |
| CCL7 | SID160716451 | 1.73 | 15.2 | 9.74 | inactive |
| CCL7 | SID160731696 | 0.892 | 9.25 | 7.02 | inactive |
| MYH7 | SID160777664 | 4.12 | 32 | 18.1 | inactive |
| MYH7 | SID160777665 | 0.601 | 7.19 | 8.14 | inactive |
| MYH7 | SID160777666 | -0.896 | -3.34 | 2.09 | inactive |
| CCR7 | SID160745039 | 1.19 | 11.3 | 9.89 | inactive |
| CCR7 | SID160745049 | 0.303 | 5.1 | 6.3 | inactive |
| CCR7 | SID160745060 | -0.179 | 1.7 | 3.79 | inactive |
| GCM1 | SID160720229 | -0.754 | -2.33 | 4.44 | inactive |
| GCM1 | SID160720230 | 1.04 | 10.3 | 9.2 | inactive |
| GCM1 | SID160720231 | -0.983 | -3.95 | 3.29 | inactive |
| PNMA8B | SID160746036 | -0.972 | -3.87 | 2.82 | inactive |
| PNMA8B | SID160746037 | -0.56 | -0.97 | 4 | inactive |
| PNMA8B | SID160746038 | -0.887 | -3.27 | 1.99 | inactive |
| PPIB | SID160714732 | 0.708 | 7.95 | 7.71 | inactive |
| PPIB | SID160714733 | 0.807 | 8.65 | 7.98 | inactive |
| PPIB | SID160731467 | 0.41 | 5.85 | 6.09 | inactive |

Continued; the last 4 above are carried over.
| gene knocked down | PubChem SID | G2 robust z-score | G2 cells, % of GMNN control | raw share of cells in G2 (%) | Outcome |
| --- | --- | --- | --- | --- | --- |
| PNMA8B | SID160746038 | -0.887 | -3.27 | 1.99 | inactive |
| PPIB | SID160714732 | 0.708 | 7.95 | 7.71 | inactive |
| PPIB | SID160714733 | 0.807 | 8.65 | 7.98 | inactive |
| PPIB | SID160731467 | 0.41 | 5.85 | 6.09 | inactive |
| SDHC | SID160716528 | -0.419 | 0.0167 | 5.69 | inactive |
| SDHC | SID160716529 | 0.38 | 5.64 | 6.48 | inactive |
| SDHC | SID160716530 | -0.278 | 1.01 | 4.29 | inactive |
| LAT2 | SID160718815 | -0.496 | -0.52 | 4.9 | inactive |
| LAT2 | SID160718816 | 3.59 | 28.2 | 15.1 | inactive |
| LAT2 | SID160734903 | 0.248 | 4.71 | 5.01 | inactive |
| PDGFRB | SID160714041 | 1.2 | 11.4 | 9.37 | inactive |
| PDGFRB | SID160714042 | -1.45 | -7.21 | 2.98 | inactive |
| PDGFRB | SID160714043 | -0.388 | 0.238 | 4.11 | inactive |
| MAP3K3 | SID160777137 | -1.05 | -4.41 | 4.15 | inactive |
| MAP3K3 | SID160777138 | -1.4 | -6.86 | 3.1 | inactive |
| MAP3K3 | SID160777139 | 0.658 | 7.6 | 6.7 | inactive |
